Results deposited as PubChem BioAssay AID504804 (Drosophila RNAi Screening Center, 2011)
The deposit covers about 19,000 reagents; shown is a random part of those that have a named target and a result. Of all reagents, 47 (0.25%) are marked active. 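Signals are raw, not normalised; exact z-scores behind calls not deposited; actives needed confirmation, so some wells reaching 2 SD are inactive.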 Names joined by + are all predicted targets of the reagent.

Aim: 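Knock-downs shielding fly cells from apoptosis caused by DNA damage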 (primary screen)
Cells: Drosophila Kc cells
Reagents: long dsRNA against Drosophila genes, 0.5 µg dsRNA per well
Time to read-out: 96 h (48 h knock-down, then 48 h drug)
Treatment: doxorubicin 5 µg/ml for 48 h, added 48 h after dsRNA
Read-out: 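Luminescent ATP counts per replicate, not normalised, reflecting viable cells after 48 h dsRNA knock-down followed by 48 h of 5 µg/ml doxorubicin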
Direction: raw ATP luminescence: higher = more viable cells, protection from doxorubicin
Call rule: 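z-score of 2 or more over plate mean in both duplicates, retained only when retests and separate dsRNAs confirm the protection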

Target gene | PubChem SID | SD above plate mean | raw ATP luminescence, replicate 1 | raw ATP luminescence, replicate 2 | call
CG33992 (retired record) + CG43755 | SID104179804 | – | 2.51e5 | 2.60e5 | inactive
Tao | SID104199365 | – | 2.12e5 | 1.86e5 | inactive
Tao | SID104199366 | – | 3.55e5 | 3.04e5 | inactive
Dys (Dystrophin) | SID104193152 | – | 2.20e5 | 2.54e5 | inactive
Dys (Dystrophin) | SID104193156 | – | 1.83e5 | 2.00e5 | inactive
Dys (Dystrophin) | SID104195052 | at least 2 SD above plate mean | 87510 | 98240 | inactive
Dys (Dystrophin) | SID104196010 | – | 75510 | 88830 | inactive
Dys (Dystrophin) | SID104196011 | – | 62070 | 88040 | inactive
Dys (Dystrophin) | SID104196012 | – | 53070 | 85280 | inactive
Dys (Dystrophin) | SID104196727 | – | 64370 | 64780 | inactive
pen-2 (presenilin enhancer) | SID104185514 | – | 1.90e5 | 1.44e5 | inactive
CG17549 | SID104182417 | – | 1.13e5 | 73803 | inactive
Atf6 | SID104184535 | – | 90417 | 97587 | inactive
Atf6 | SID104184681 | – | 43980 | 51383 | inactive
ClC-c (Chloride channel-c) | SID104190291 | – | 22420 | 20367 | inactive
CG7084 | SID104195986 | – | 46420 | 47087 | inactive
Hex-t1 (Hexokinase testis 1) | SID104196493 | – | 44800 | 51120 | inactive
TwdlG (TweedleG) | SID104192021 | – | 57073 | 58440 | inactive
CG9518 | SID104199986 | – | 3.50e5 | 3.22e5 | inactive
CG4622 | SID104184271 | – | 63410 | 53540 | inactive
CG1421 | SID104183499 | – | 62090 | 62783 | inactive
CG4520 | SID104195382 | – | 76930 | 61200 | inactive
CG12914 | SID104186021 | – | 53803 | 62953 | inactive
spt4 | SID104187488 | – | 54240 | 43903 | inactive
CG7164 | SID104182810 | – | 53210 | 69453 | inactive
Eglp1 (Entomoglyceroporin 1) | SID104184294 | – | 70843 | 83787 | inactive
sgg (shaggy) | SID104197020 | – | 2.25e5 | 2.23e5 | inactive
sgg (shaggy) | SID104197514 | – | 2.55e5 | 2.02e5 | inactive
sgg (shaggy) | SID104198624 | – | 51410 | 71250 | inactive
Rift (Riboflavin transporter) | SID104194122 | – | 46600 | 55370 | inactive
CG11322 | SID104181934 | – | 25707 | 34587 | inactive
Eig71Ef (Ecdysone-induced gene 71Ef) | SID104190945 | – | 42917 | 39010 | inactive
Myo10A (Myosin 10A) | SID104199626 | – | 3.23e5 | 2.64e5 | inactive
Myo10A (Myosin 10A) | SID104199629 | – | 3.23e5 | 3.46e5 | inactive
tctn + B9d2 | SID104182952 | – | 24753 | 23703 | inactive
CG9624 | SID104196315 | – | 1.11e5 | 69230 | inactive
CG4860 | SID104195456 | – | 46327 | 28280 | inactive
CG34367 | SID104182030 | – | 38830 | 86497 | inactive
CG34367 | SID104182642 | – | 42200 | 93210 | inactive
mael (maelstrom) | SID104191686 | – | 38033 | 31193 | inactive
CG14817 | SID104198339 | – | 49430 | 43740 | inactive
Alg14 (ALG14, UDP-N-acetylglucosaminyltransferase subunit) | SID104199775 | – | 3.36e5 | 3.13e5 | inactive
CG42703 | SID104183765 | – | 85973 | 57533 | inactive
ninaC (neither inactivation nor afterpotential C) | SID104183371 | – | 1.16e5 | 90597 | inactive
RpS8 (Ribosomal protein S8) | SID104196110 | – | 31890 | 24640 | inactive
Tsp86D (Tetraspanin 86D) | SID104195399 | – | 48483 | 52497 | inactive
CG7714 | SID104196092 | – | 64640 | 75180 | inactive
C901 | SID104199143 | – | 3.65e5 | 3.20e5 | inactive
CG9896 | SID104183754 | – | 68770 | 68273 | inactive
CG9896 | SID104184386 | – | 51163 | 57197 | inactive
ctrip (circadian trip) | SID104192034 | – | 47473 | 46573 | inactive
ctrip (circadian trip) | SID104192079 | – | 38910 | 34317 | inactive
CG15404 | SID104180210 | – | 25003 | 24330 | inactive
Men-b (Malic enzyme b) | SID104196528 | – | 58750 | 41610 | inactive
Syx7 (Syntaxin 7) | SID104191555 | – | 20560 | 22610 | inactive
SmE (Small ribonucleoprotein particle protein SmE) | SID104182472 | – | 35867 | 62153 | inactive
LanB2 (Laminin B2) | SID104191000 | – | 38903 | 37147 | inactive
CG6052 | SID104190366 | – | 67447 | 58673 | inactive
Jhbp13 (Juvenile hormone binding protein 13) | SID104182705 | – | 66030 | 81450 | inactive
rib (ribbon) | SID104186813 | – | 73253 | 67707 | inactive
Bin1 (Bicoid interacting protein 1) | SID104196635 | – | 67980 | 73960 | inactive
CG2225 | SID104183514 | – | 67047 | 59833 | inactive
CG2225 | SID104183515 | – | 50360 | 47270 | inactive
Jhbp1 (Juvenile hormone binding protein 1) | SID104191959 | – | 49733 | 42847 | inactive
lolal (lola like) | SID104186740 | – | 72967 | 64500 | inactive
dgt2 (dim gamma-tubulin 2) | SID104182340 | – | 30100 | 48863 | inactive
Top2 (Topoisomerase 2) | SID104183251 | – | 50990 | 49423 | inactive
CG10948 | SID104189598 | – | 80760 | 85683 | inactive
Ars2 (Arsenic resistance protein 2) | SID104184685 | – | 60040 | 59797 | inactive
CG5388 | SID104195581 | – | 62900 | 59490 | inactive
Nph (Nucleophosmin) | SID104196134 | – | 49610 | 56710 | inactive
pb (proboscipedia) | SID104192201 | – | 75997 | 44707 | inactive
pb (proboscipedia) | SID104192421 | – | 48377 | 41303 | inactive
CG13385 | SID104182051 | – | 39023 | 81497 | inactive
CG14618 | SID104200423 | – | 2.72e5 | 2.90e5 | inactive
dlg1 (discs large 1) | SID104198687 | – | 85503 | 70663 | inactive
dlg1 (discs large 1) | SID104198688 | – | 2.35e5 | 2.08e5 | inactive
dlg1 (discs large 1) | SID104199559 | – | 2.87e5 | 2.57e5 | inactive
salto | SID104186083 | – | 68637 | 58883 | inactive
CG2017 | SID104192085 | – | 62577 | 20190 | inactive
CG16719 | SID104190014 | – | 43767 | 30413 | inactive
CG42821 + CG42822 | SID104193023 | – | 2.20e5 | 2.55e5 | inactive
CG42821 + CG42822 | SID104193024 | – | 1.90e5 | 2.40e5 | inactive
myd (mayday) | SID104194554 | – | 37503 | 32633 | inactive
myd (mayday) | SID104195304 | – | 62960 | 63600 | inactive

4 of these entries in another layout.
| Target gene | PubChem SID | SD above plate mean | raw ATP luminescence, replicate 1 | raw ATP luminescence, replicate 2 | call |
| --- | --- | --- | --- | --- | --- |
| dlg1 (discs large 1) | SID104198688 | – | 2.35e5 | 2.08e5 | inactive |
| dlg1 (discs large 1) | SID104199559 | – | 2.87e5 | 2.57e5 | inactive |
| salto | SID104186083 | – | 68637 | 58883 | inactive |
| CG2017 | SID104192085 | – | 62577 | 20190 | inactive |
